Data source: PubChem BioAssay AID743454 (Peter MacCallum Cancer Centre, 2014)

Test: 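Search for knock-downs that restore vorinostat killing in resistant colon cancer cells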 (primary screen)
System: human HCT116-VR colon cancer cells, selected for vorinostat resistance
Reagent: siRNA pool against human genes, 40 nM siRNA pool
Time to read-out: vorinostat for 24 h, read-out about 72 h after transfection
Challenge: vorinostat at 2.5 µM final
Detection: 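Two measures, CellTiter-Fluor viability and luminescent caspase 3/7 activity, each as fold change against same-plate mock wells, mean of duplicates, then screen-wide robust z-score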
Reading the numbers: viability robust z-score: higher = more viable cells than screen typical; caspase robust z-score: higher = more caspase 3/7 activity than screen typical
Call rule: 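Hits are knock-downs in viability class RV1/RV2 or caspase class CA1/CA2, excluding ones that killed cells in the no-drug cell-count arm; hits then retested with single siRNAs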
In all, the deposit lists about 18,000 reagents; shown is a random part of them. 450 of all reagents (2.5%) count as active. 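Single biological run; no consistent viability z cut-off exists, so the class columns, not z-scores, define the calls.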 Unmarked entries are inactive.

Target gene	viability hit class	caspase hit class	viability robust z-score	caspase robust z-score
QSOX2 (GeneID 169714)	no change	no change	0.5	-1
OR4S2 (GeneID 219431)	no change	no change	-1.31	-1.27
HTRA3 (GeneID 94031)	no change	no change	-0.92	2.21
NCLN (GeneID 56926)	no change	no change	-3.86	1.15
NAA80 (GeneID 24142)	no change	no change	1.5	-0.8
CDKN1C (GeneID 1028)	no change	no change	0.72	0.52
RAB4B (GeneID 53916)	no change	no change	-1.56	2.65
PAGR1 (GeneID 79447)	no change	no change	1.68	2.29
AP1M2 (GeneID 10053)	no change	no change	-0.3	-0.68
GALE (GeneID 2582)	no change	no change	0.29	-0.45
SLC28A2 (GeneID 9153)	no change	no change	-0.71	-0.53
LINC00174 (GeneID 285908)	no change	no change	-0.38	1.8
GPRASP3 (GeneID 80823)	no change	no change	-1.52	-1.4
CDK19 (GeneID 23097)	no change	no change	-0.34	-0.8
LZTS3 (GeneID 9762)	no change	no change	-0.43	2.6
ANXA2 (GeneID 302)	no change	no change	0.31	0.37
P2RY1 (GeneID 5028)	no change	no change	-0.24	-0.68
GRIN2A (GeneID 2903)	no change	no change	0.26	1.2
FFAR4 (GeneID 338557)	no change	no change	0.64	-0.66
NEK11 (GeneID 79858)	no change	no change	-0.7	-0.02
HMG20B (GeneID 10362)	no change	no change	1.1	-0.29
PNKP (GeneID 11284)	RV2 (reduced viability) (active)	no change	-3.52	3.63
SLC35A5 (GeneID 55032)	no change	no change	-1.38	1.31
ROGDI (GeneID 79641)	no change	no change	0	-0.31
PDIK1L (GeneID 149420)	no change	no change	-0.07	-0.31
KCTD21 (GeneID 283219)	no change	no change	0.1	2.62
MTA3 (GeneID 57504)	no change	no change	0.4	-0.28
SYK (GeneID 6850)	no change	no change	-0.7	0.36
COXFA4 (GeneID 4697)	no change	no change	0.64	-0.97
NR4A2 (GeneID 4929)	no change	no change	0.18	2
H3C3 (GeneID 8352)	no change	no change	-0.46	2.91
CNTRL (GeneID 11064)	no change	no change	0.5	-0.79
TRIM64 (GeneID 120146)	no change	no change	-0.26	3.29
FLCN (GeneID 201163)	no change	no change	-1.02	-0.29
THSD4 (GeneID 79875)	no change	no change	-0.79	1.87
ZNF529 (GeneID 57711)	no change	no change	-0.04	0.12
FAM219B (GeneID 57184)	no change	no change	-0.62	-0.22
ZNF528 (GeneID 84436)	no change	no change	0.48	-0.3
NDUFV1-DT (GeneID 100505621)	no change	no change	-0.32	0.81

Sorted by “viability robust z-score” (high to low): 2 of the entries above.
Target gene	viability hit class	caspase hit class	viability robust z-score	caspase robust z-score
ROGDI (GeneID 79641)	no change	no change	0	-0.31
SLC35A5 (GeneID 55032)	no change	no change	-1.38	1.31
